Results published in PMC12431657, “Discovery and mechanistic insights of dibenzoylmethane as a broad spectrum inhibitor of coronavirus” (PLOS Pathogens, 2025).
Where two headings read alike, the source gives them in different places. Among all 3,300 compounds or so, about 60 (2%) showed an effect of 50% or more. This is one part of the list.

System: HCoV-OC43
Set-up: species or system RD; HTS, protection from HCoV-OC43 induced cell death, luminescent cell viability (CellCounting-Lite 2.0), inhibition rate
Conditions: 24 h post infection, 1 h compound pre-incubation, 10 µM, inhibitor

Compound | OC43 Inhibition rate [%] | OC43 Inhibition rate (OC43 Inhibition rate, 24 h) [%]
COc1cc(O)c2c(=O)c(OC)c(-c3ccc(O)c(OC)c3)oc2c1 [Pachypodol] | 0 | 
Cc1ccc(C(=O)O)cc1 [p-Toluic acid] | -3.1 | 
CNCC(=O)O [Sarcosine] | 2.2 | 
CCCC(C)C(=O)O (stereo not drawn) [2-Methylvaleric acid] | -6.4 | 
O=C(O)C(=O)Cc1ccccc1 [Phenylpyruvic acid] | -1.6 | 
O=C(O)C(=O)CO [Hydroxypyruvic acid] | -0.3 | 
O=C1c2ccc(O)cc2OCC1c1ccc(O)cc1 (stereo not drawn) [Dihydrodaidzein] | -1.4 | 
O=C(O)c1cc(=O)c2ccccc2[nH]1 [Kynurenic acid] | 4.3 | 
COc1cc2c(cc1O)CC[n+]1cc3c(OC)c(OC)ccc3cc1-2 [Jatrorrhizine (hydroxide)] |  | 1
Cc1cc2nc3c(=O)[nH]c(=O)nc-3n(C[C@H](O)[C@H](O)[C@H](O)COP(=O)(O)O)c2cc1C [Riboflavin (phosphate sodium)] | 11.2 | 
O=c1ncnc2n([C@H]3O[C@@H](CO)[C@H](O)[C@@H]3O)[nH]cc1-2 (stereo in doubt) [Allopurinol riboside] | 1.9 | 
CC(C)=CCC[C@](C)(O[C@@H]1O[C@H](CO)[C@@H](O)[C@H](O)[C@H]1O)[C@H]1CC[C@]2(C)[C@@H]1[C@H](O)C[C@@H]1[C@@]3(C)CC[C@H](O[C@@H]4O[C@H](CO)[C@@H](O)[C@H](O)[C@H]4O[C@@H]4O[C@H](CO)[C@@H](O)[C@H](O)[C@H]4O)C(C)(C)[C@@H]3CC[C@]12C [Ginsenoside Rd] | -0.9 | 
C[C@@H]1O[C@@H](OC[C@H]2O[C@@H](Oc3c(-c4ccc(O)cc4)oc4cc(O)cc(O)c4c3=O)[C@H](O[C@@H]3O[C@H](CO)[C@H](O)[C@H](O)[C@H]3O)[C@@H](O)[C@@H]2O)[C@H](O)[C@H](O)[C@H]1O [Camelliaside A] | -0.5 | 
OCC(CO)N[C@H]1C[C@](O)(CO)[C@@H](O)[C@H](O)[C@H]1O [Voglibose] | -2.6 | 
CCCCCCCC/C=C\CCCCCCCCCC(=O)O [Gondoic acid] | -0.6 | 
C[C@H]1C(=O)CC[C@@H]2[C@]1(C)CC[C@H]1[C@@]2(C)CC[C@@]2(C)[C@@H]3CC(C)(C)CC[C@]3(C)CC[C@]12C [Friedelin] | -1.4 | 
CCCCCCCCCCC/C=C\CCCCC(=O)O [Petroselinic acid] | -0.2 | 
NCCP(=O)(O)O [(2-Aminoethyl)phosphonic acid] | 0.1 | 
CCCCCCCCCCCCCCCCCCCCCCCCCCCC(=O)O [Octacosanoic acid] | -0.6 | 
CC1(C)CC(=O)CC(C)(C)N1 [Triacetonamine] | -1.3 | 
C/C=C(\C)C(=O)O[C@H]1[C@H](O)[C@]2(COC(C)=O)[C@H](O)C[C@]3(C)C(=CC[C@@H]4[C@@]5(C)CC[C@H](O[C@@H]6O[C@H](C(=O)O)[C@@H](O[C@@H]7O[C@H](CO)[C@@H](O)[C@H](O)[C@H]7O)[C@H](O)[C@H]6O[C@@H]6O[C@H](CO)[C@@H](O)[C@H](O)[C@H]6O)[C@](C)(CO)[C@@H]5CC[C@]43C)[C@@H]2CC1(C)C [Isoescin IA] | -0.1 | 
C/C(=C/CC[C@]1(CO)CC[C@]2(C)[C@H](CC[C@@H]3[C@@]4(C)CC[C@H](O[C@@H]5O[C@H](CO)[C@@H](O)[C@H](O)[C@H]5O[C@@H]5O[C@H](CO)[C@@H](O)[C@H](O)[C@H]5O)[C@@](C)(CO[C@@H]5O[C@H](CO)[C@@H](O)[C@H](O)[C@H]5O)[C@@H]4CC[C@]32C)[C@H]1O)CO [Hosenkoside C] | -0.6 | 
C/C=C(/C)C(=O)O[C@H]1c2cc3c(c4c2[C@@]2(CO4)C(=O)C(OC)=C(OC)C=C2C[C@@H](C)[C@H]1C)OCO3 [Heteroclitin D] | -0.2 | 
Cn1c(=O)c2[nH]c(=O)[nH]c2n(C)c1=O [1,3-Dimethyluric acid] | -1.4 | 
C=C1C(=O)O[C@H]2C[C@@H](C)[C@@H]3CCC(=O)[C@@]3(C)[C@@H](OC(C)=O)[C@H]12 [Ergolide] | 10.6 | 
NCCCS(=O)(=O)O [Tramiprosate] | 0.3 | 
COc1cc(O)c2c(=O)c(OC)c(-c3ccc(OC)c(O)c3)oc2c1 [Ayanin] | 18 | 
O=c1ccc2cc(O[C@@H]3O[C@H](CO)[C@@H](O)[C@H](O)[C@H]3O)c(O)cc2o1 [Esculin] | -0.7 | 
O=C(O)c1ccc2c(c1)OCO2 [Piperonylic acid] | -0.5 | 
CCCC(N)C(=O)O (racemic) [DL-Norvaline] | 1.1 | 

Five neighbouring entries from above:
Compound | OC43 Inhibition rate [%] | OC43 Inhibition rate (OC43 Inhibition rate, 24 h) [%]
C/C=C(\C)C(=O)O[C@H]1[C@H](O)[C@]2(COC(C)=O)[C@H](O)C[C@]3(C)C(=CC[C@@H]4[C@@]5(C)CC[C@H](O[C@@H]6O[C@H](C(=O)O)[C@@H](O[C@@H]7O[C@H](CO)[C@@H](O)[C@H](O)[C@H]7O)[C@H](O)[C@H]6O[C@@H]6O[C@H](CO)[C@@H](O)[C@H](O)[C@H]6O)[C@](C)(CO)[C@@H]5CC[C@]43C)[C@@H]2CC1(C)C [Isoescin IA] | -0.1 | 
C/C(=C/CC[C@]1(CO)CC[C@]2(C)[C@H](CC[C@@H]3[C@@]4(C)CC[C@H](O[C@@H]5O[C@H](CO)[C@@H](O)[C@H](O)[C@H]5O[C@@H]5O[C@H](CO)[C@@H](O)[C@H](O)[C@H]5O)[C@@](C)(CO[C@@H]5O[C@H](CO)[C@@H](O)[C@H](O)[C@H]5O)[C@@H]4CC[C@]32C)[C@H]1O)CO [Hosenkoside C] | -0.6 | 
C/C=C(/C)C(=O)O[C@H]1c2cc3c(c4c2[C@@]2(CO4)C(=O)C(OC)=C(OC)C=C2C[C@@H](C)[C@H]1C)OCO3 [Heteroclitin D] | -0.2 | 
Cn1c(=O)c2[nH]c(=O)[nH]c2n(C)c1=O [1,3-Dimethyluric acid] | -1.4 | 
C=C1C(=O)O[C@H]2C[C@@H](C)[C@@H]3CCC(=O)[C@@]3(C)[C@@H](OC(C)=O)[C@H]12 [Ergolide] | 10.6 | 
